Measured values taken from article PMC5903298.

Molecular target: T1, DJ-1 (rat (endogenous in rat testes)) (UniProt O88767)
T1 sequence: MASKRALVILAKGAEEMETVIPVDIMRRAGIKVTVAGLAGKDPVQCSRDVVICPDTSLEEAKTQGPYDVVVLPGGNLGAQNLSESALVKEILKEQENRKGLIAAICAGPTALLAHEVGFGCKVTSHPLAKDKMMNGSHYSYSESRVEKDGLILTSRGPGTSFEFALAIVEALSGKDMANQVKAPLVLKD
Assay: co-IP; rat testes homogenate (about 500 ug protein in 1 mL), precleared with Protein A/G PLUS-Agarose and normal goat IgG; goat anti-DJ-1 antibody 4 h at 4°C, then Protein A/G PLUS-Agarose overnight at 4°C; normal goat IgG as negative control; blot with anti-NDUFS3 and anti-DJ-1; testes of control rats and of ornidazole (ORN)-treated rats (400 mg/kg daily, 14 days)

nicotinamide adenine dinucleotide dehydrogenase (ubiquinone) Fe-S protein 3 (NDUFS3) (rat (endogenous in rat testes))
binding: binds

Results are given in words; binding and its absence hold for the method and conditions named. In cells and extracts the contact can be indirect. Binding can be weak; no strength is given.
